Measurements taken from the supplement of paper PMC6078165.
± gives the standard deviation of the averaged measurements. The reference is the same well before dosing, and untreated signal decays as well.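 The cancer cells are triple-negative breast cancer lines of basal-like or mesenchymal-like type, grown without fibroblasts. A drop in red signal reflects loss of mitochondrial integrity, a stand-in for apoptotic death.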

Assays:
Assay in all cases: relative JC-1 red fluorescence (viability) vs pre-drug, monoculture (fraction); higher = more viable cancer cells
Settings in all cases: coculture fibroblast: none (monoculture)
[1] = system: MDAMB468
Procedure: (§1)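 JC-1 labelled TNBC cells grown in monoculture (density kept equal with unlabelled cancer cells) in 384-well plates in FluoroBrite medium, treated with one of 42 anticancer drugs at 0.1, 1, 10 or 100 uM. JC-1 red fluorescence (mitochondrial integrity, surrogate of apoptotic death) was read by plate reader every 8 h for 72 h. Values are normalised to each well's pre-drug value, with background from alamethicin. The stock of one drug was tenfold lower, so its dose labels may be too high. Monoculture values are repeated alongside each fibroblast plate and are averaged here.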

[2] = system: BT20
Procedure: as §1

[3] = system: MDAMB231
Procedure: as §1

[4] = system: Hs578T
Procedure: as §1

O=NN(CCCl)C(=O)NC1CCCCC1 [Lomustine]
relative JC-1 red fluorescence
Settings	8 h	16 h	24 h	32 h	40 h	48 h	56 h	64 h	72 h
[1], 0.1 µM	0.8522 ± 0.0078	0.7409 ± 0.0073	0.71 ± 0.0034	0.634 ± 0.014	0.596 ± 0.012	0.567 ± 0.0037	0.53267 ± 0.00011	0.5078 ± 0.0037	0.4939 ± 0.0038
[1], 1 µM	0.895 ± 0.012	0.847 ± 0.016	0.787 ± 0.023	0.717 ± 0.023	0.692 ± 0.032	0.672 ± 0.041	0.647 ± 0.05	0.622 ± 0.048	0.62 ± 0.061
[1], 10 µM	0.775 ± 0.011	0.69 ± 0.025	0.655 ± 0.028	0.581 ± 0.027	0.544 ± 0.018	0.541 ± 0.014	0.514 ± 0.0097	0.495 ± 0.012	0.486 ± 0.013
[1], 100 µM	0.837 ± 0.061	0.599 ± 0.011	0.555 ± 0.012	0.502 ± 0.0053	0.4695 ± 0.0035	0.472 ± 0.0089	0.444 ± 0.013	0.434 ± 0.016	0.435 ± 0.024
[2], 0.1 µM	0.927 ± 0.025	0.841 ± 0.0063	0.826 ± 0.0062	0.757 ± 0.011	0.7237 ± 0.0048	0.714 ± 0.0097	0.692 ± 0.0081	0.7 ± 0.013	0.694 ± 0.021
[2], 1 µM	0.9604 ± 0.004	0.8835 ± 0.0037	0.812 ± 0.029	0.729 ± 0.025	0.678 ± 0.031	0.653 ± 0.031	0.62 ± 0.036	0.602 ± 0.036	0.586 ± 0.039
[2], 10 µM	0.895 ± 0.022	0.8324 ± 0.0028	0.8289 ± 0.0054	0.7649 ± 0.0059	0.7418 ± 0.0031	0.7244 ± 0.0016	0.7109 ± 0.00074	0.713 ± 0.0073	0.717 ± 0.0067
[2], 100 µM	0.859 ± 0.042	0.806 ± 0.027	0.852 ± 0.045	0.814 ± 0.04	0.797 ± 0.043	0.806 ± 0.037	0.786 ± 0.03	0.791 ± 0.032	0.791 ± 0.027
[3], 0.1 µM	0.715 ± 0.022	0.64774 ± 0.00063	0.846 ± 0.06	0.68 ± 0.037	0.663 ± 0.052	0.704 ± 0.081	0.706 ± 0.083	0.759 ± 0.093	0.773 ± 0.1
[3], 1 µM	0.7243 ± 0.0017	0.682 ± 0.016	0.6576 ± 0.0006	0.594 ± 0.0081	0.5602 ± 0.00095	0.5538 ± 0.0027	0.5373 ± 0.0014	0.5617 ± 0.0023	0.5679 ± 0.0052
[3], 10 µM	0.683 ± 0.018	0.654 ± 0.029	0.686 ± 0.046	0.603 ± 0.043	0.572 ± 0.048	0.579 ± 0.051	0.564 ± 0.049	0.601 ± 0.049	0.605 ± 0.043
[3], 100 µM	0.602 ± 0.079	0.539 ± 0.053	0.591 ± 0.056	0.524 ± 0.064	0.513 ± 0.07	0.51 ± 0.065	0.503 ± 0.055	0.544 ± 0.048	0.548 ± 0.043
[4], 0.1 µM	0.83395 ± 0.00034	0.684 ± 0.011	0.661 ± 0.045	0.584 ± 0.043	0.547 ± 0.053	0.526 ± 0.062	0.501 ± 0.071	0.49 ± 0.077	0.483 ± 0.087
[4], 1 µM	0.8474 ± 0.0069	0.738 ± 0.0036	0.664 ± 0.014	0.599 ± 0.017	0.546 ± 0.017	0.517 ± 0.021	0.488 ± 0.022	0.482 ± 0.018	0.471 ± 0.018
[4], 10 µM	0.823 ± 0.01	0.666 ± 0.025	0.637 ± 0.051	0.565 ± 0.048	0.526 ± 0.062	0.499 ± 0.067	0.483 ± 0.076	0.474 ± 0.083	0.475 ± 0.084
[4], 100 µM	0.712 ± 0.054	0.605 ± 0.061	0.592 ± 0.031	0.529 ± 0.031	0.489 ± 0.061	0.472 ± 0.09	0.455 ± 0.11	0.457 ± 0.13	0.452 ± 0.14

CC(C)C[C@H](NC(=O)[C@@H](COC(C)(C)C)NC(=O)[C@H](Cc1ccc(O)cc1)NC(=O)[C@H](CO)NC(=O)[C@H](Cc1c[nH]c2ccccc12)NC(=O)[C@H](Cc1cnc[nH]1)NC(=O)[C@@H]1CCC(=O)N1)C(=O)N[C@@H](CCCNC(=N)N)C(=O)N1CCC[C@H]1C(=O)NNC(N)=O [Goserelin]
relative JC-1 red fluorescence
Settings	8 h	16 h	24 h	32 h	40 h	48 h	56 h	64 h	72 h
[1], 0.1 µM	0.8995 ± 0.0029	0.811 ± 0.011	0.764 ± 0.01	0.703 ± 0.014	0.669 ± 0.032	0.651 ± 0.052	0.628 ± 0.055	0.614 ± 0.063	0.612 ± 0.082
[1], 1 µM	0.8822 ± 0.0027	0.806 ± 0.0097	0.743 ± 0.0066	0.6871 ± 0.0026	0.66341 ± 0.00025	0.6454 ± 0.0063	0.622 ± 0.0086	0.6055 ± 0.0042	0.6 ± 0.013
[1], 10 µM	0.9006 ± 0.0013	0.8373 ± 0.0066	0.783 ± 0.029	0.719 ± 0.037	0.665 ± 0.037	0.649 ± 0.037	0.614 ± 0.04	0.59 ± 0.044	0.577 ± 0.048
[1], 100 µM	0.897 ± 0.019	0.831 ± 0.026	0.795 ± 0.02	0.733 ± 0.031	0.697 ± 0.036	0.675 ± 0.033	0.648 ± 0.035	0.624 ± 0.029	0.621 ± 0.032
[2], 0.1 µM	0.9666 ± 0.0003	0.8447 ± 0.008	0.7859 ± 0.0055	0.7125 ± 0.00097	0.666 ± 0.012	0.634 ± 0.01	0.592 ± 0.0098	0.573 ± 0.019	0.549 ± 0.019
[2], 1 µM	0.932 ± 0.01	0.8582 ± 0.0047	0.785 ± 0.0096	0.707 ± 0.026	0.66 ± 0.032	0.644 ± 0.043	0.616 ± 0.034	0.596 ± 0.026	0.579 ± 0.028
[2], 10 µM	0.945 ± 0.015	0.853 ± 0.014	0.771 ± 0.022	0.696 ± 0.025	0.647 ± 0.022	0.605 ± 0.026	0.566 ± 0.03	0.545 ± 0.038	0.528 ± 0.041
[2], 100 µM	0.852 ± 0.094	0.903 ± 0.041	0.862 ± 0.062	0.793 ± 0.057	0.744 ± 0.062	0.711 ± 0.067	0.673 ± 0.058	0.654 ± 0.056	0.63 ± 0.055
[3], 0.1 µM	0.79841 ± 0.00066	0.685 ± 0.021	0.84741 ± 0.00062	0.719 ± 0.0088	0.7043 ± 0.0019	0.726 ± 0.011	0.712 ± 0.0086	0.762 ± 0.015	0.77 ± 0.02
[3], 1 µM	0.7 ± 0.028	0.692 ± 0.072	0.611 ± 0.057	0.558 ± 0.047	0.518 ± 0.039	0.498 ± 0.035	0.467 ± 0.039	0.484 ± 0.03	0.478 ± 0.037
[3], 10 µM	0.8 ± 0.025	0.758 ± 0.026	0.76 ± 0.031	0.707 ± 0.034	0.671 ± 0.042	0.675 ± 0.04	0.647 ± 0.034	0.671 ± 0.017	0.677 ± 0.022
[3], 100 µM	0.762 ± 0.018	0.767 ± 0.018	0.674 ± 0.032	0.664 ± 0.025	0.618 ± 0.027	0.604 ± 0.04	0.574 ± 0.042	0.586 ± 0.053	0.567 ± 0.056
[4], 0.1 µM	0.853 ± 0.014	0.7115 ± 0.0048	0.697 ± 0.018	0.634 ± 0.018	0.592 ± 0.011	0.5687 ± 0.0052	0.545 ± 0.0072	0.54 ± 0.013	0.525 ± 0.017
[4], 1 µM	0.845 ± 0.028	0.735 ± 0.045	0.705 ± 0.05	0.642 ± 0.054	0.609 ± 0.065	0.601 ± 0.07	0.586 ± 0.068	0.587 ± 0.08	0.59 ± 0.082
[4], 10 µM	0.861 ± 0.026	0.749 ± 0.031	0.698 ± 0.046	0.643 ± 0.037	0.603 ± 0.047	0.584 ± 0.06	0.561 ± 0.063	0.559 ± 0.073	0.551 ± 0.076
[4], 100 µM	0.901 ± 0.019	0.794 ± 0.01	0.809 ± 0.042	0.726 ± 0.031	0.697 ± 0.045	0.689 ± 0.044	0.674 ± 0.056	0.68 ± 0.057	0.664 ± 0.064
